The list does not hold the whole screen: it covers a few groups of compounds. Other doses and runs of a compound may be missing. T/C: endpoint of the treated group in % of that of the vehicle group. Some doses have a count of surviving animals in place of a T/C: the source holds a T/C of zero for them, seemingly a mark for toxic or unscored doses. Some doses without a T/C left all or most animals alive at the check, yet need not have been tolerated: survival well below the control is almost never listed, so the zero probably covers shortened survival too. Survivors were counted at the toxicity check, usually on the fifth day, unless a day is given; later deaths do not show. Schedule codes are those of the source, taken here to give the interval after Q, in days (D) or hours (H), and the number of doses after X. Where survival is the endpoint, this PubChem deposit counts one and a half times the control or more as active, and values a quarter to a half above the control carry no call in these data; other NCI protocols may use other cut-offs. Some doses were run more than once; the values are given in rising order.
Test system: B16 melanoma ip, C57BL/6 mice, median survival T/C
Assay: NCI In Vivo Anticancer Drug Screen. Data for tumor model B16 Melanoma (intraperitoneal) in C57BL/6 mice
Details: T/C endpoint: median survival time, schedule: Q01DX009 (ip), vehicle: saline, higher T/C = longer survival
Experimental: The antitumor activity of compounds was measured in mice bearing transplantable tumors. Survival or tumor size were measured and the results are expressed as the measurement made in the treated group (T) divided by the measurement made in the vehicle treated control group (C). The tumor model used in this assay is B16 Melanoma (intraperitoneal) in C57BL/6 mice

Compound: NC(=O)c1[nH]cnc1/N=N\N(CCCl)CCCl
- T/C (dose: 50.0 mg/kg/injection): 140 and 176 % of control
- T/C (dose: 100.0 mg/kg/injection): 123 and 170 % of control
- T/C (dose: 200.0 mg/kg/injection): 90 and 103 % of control
- T/C (dose: 400.0 mg/kg/injection): 86 % of control
- survivor count (dose: 400.0 mg/kg/injection): 10 of 10

From PubChem BioAssay AID198 (DTP/NCI, 2004)
